Assay results reported in patent US11129867B2, “Method of treating cancer cells” (priority 2017, dated 2021).
For at least one compound, name, drawing or mass did not settle the structure. Where a SMILES comes first, the peptide text is derived from it. The star is where a group is joined. X1 = CN(C)c1ccc2c(-c3ccc(C(=O)*)cc3C(=O)[O-])c3ccc(=[N+](C)C)cc-3oc2c1

Key:
Format in all cases: cell-based, human
OSC20 = assay: WST-8 cell viability assay, OSC20; settings: OSC20, 25 μM, 48 hours, FIG. 3
OECM-1 = assay: WST-8 cell viability assay, OECM-1; settings: OECM-1, 25 μM, 48 hours, FIG. 3
Ca922 cells = assay: WST-8 cell viability assay, Ca922; settings: Ca922, 25 μM, 48 hours, FIG. 3
Procedure: Human oral squamous cell carcinoma (OSCC) cell lines, Ca922, OSC20, OECM-1, OC3, CGHNC9, HSC3, plus A549, MDA-MB-231, MCF7, Huh7, HeLa-Kyoto, Detroit 562, H520, H2170, and 293T cells were used in this study. Ca922, CGHNC9, MDA-MB-231, MCF7, Huh7, HeLa-Kyoto, Detroit 562, and 293T cells were all cultured in high-glucose Dulbecco's Modified Eagle Medium (DMEM). OSC20 and HSC3 cells were cultured in Dulbecco's Modified of Eagle's Medium/Ham's F-12 50/50 Mix (1:1). OECM-1, A549, H520, and H2170 cells were grown in RPMI-1640 medium. All culture media were supplemented with 10% fetal bovine serum (FBS) and 1% penicillin-streptomycin. OC3 cells were cultured in 1:1 DMEM/KSFM (keratinocyte serum-free medium) with supplied supplement of Bovine pituitary extract (BPE) and epidermal growth factor (EGF) followed by instruction. All the cells in this study were maintained at 37° C. in humidified atmosphere containing 5% CO2.
WST-8 [2-(2-methoxy-4-nitrophenyl)-3-(4-nitrophenyl)-5-(2,4-disulfophenyl)-2H-tetrazolium, monosodium salt] cell viability assay
Cells were seeded into 96 well plate and incubated at 37° C. overnight. […] The amount of formazan produced is proportional to the number of live cells and is expressed as cellular viability. […] Cell viability was measured at the absorbance of 450/655 nm wavelength by ELISA reader.

OC3 = assay: WST-8 cell viability assay, OC3; settings: OC3, 25 μM, 48 hours, FIG. 3
CGHNC9 = assay: WST-8 cell viability assay, CGHNC9; settings: CGHNC9, 25 μM, 48 hours, FIG. 3
HSC3 = assay: WST-8 cell viability assay, HSC3; settings: HSC3, 25 μM, 48 hours, FIG. 3

Measured: reduction of cell viability

CN(C)c1ccc2c(-c3ccc(C(=O)N[C@@H](CC(N)=O)C(=O)N[C@@H](Cc4ccc(O)cc4)C(=O)N[C@@H](CCCNC(=N)N)C(=O)N[C@@H](Cc4c[nH]c5ccccc45)C(=O)N[C@@H](CCCNC(=N)N)C(=O)N[C@@H](CS)C(=O)N[C@@H](CCCCN)C(=O)N[C@@H](CC(N)=O)C(=O)N[C@@H](CCC(N)=O)C(=O)N[C@@H](CC(N)=O)C(=O)O)cc3C(=O)[O-])c3ccc(=[N+](C)C)cc-3oc2c1 [TMR-GBP] (X1-NYRWRCKNQN-OH; N-terminus and C-terminus assumed)
80-90%: all assays above
